Experimental data: the supplement of paper PMC10331698
± gives the standard deviation of the averaged measurements. Most values lie at the level of the controls, where differences are scatter.

Tests used:
Assay in all cases: level (log10 ratio to DMSO vehicle control); higher = higher biomarker level / cell amount than vehicle control
[1] = compound: O=C(O)C=C(C(F)(F)F)C(F)(F)F [3,3-Bis(trifluoromethyl)-2-propenoic acid]; conditions: in DMSO
Method: (§1)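 BioMAP Diversity Plus panel of 12 human primary cell co-culture systems (3C, 4H, LPS, SAg, BT, BF4T, BE3C, CASM3C, HDF3CGF, KF3CT, MyoF, Mphg). Compounds were added 1 h before stimulation and left for 24 h (MyoF 48 h; BT 72 h for soluble read-outs or 6 d for IgG). Biomarkers were read by ELISA, cytotoxicity by SRB, PBMC viability and proliferation by Alamar Blue. Each well value was divided by the mean of 8 DMSO control wells on the same plate and log10 transformed; duplicate blinded samples were tested at 4 concentrations.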

[2] = compound: O=S(=O)(O)CCC(F)(F)C(F)(F)C(F)(F)C(F)(F)F [4:2 Fluorotelomer sulfonic acid]; conditions: 2200 nM; in DMSO
Method: as §1

[3] = compound: O=C(O)C(F)(F)C(F)(F)C(F)(F)C(F)(F)C(F)(F)C(F)(F)C(F)(F)C(F)(F)C(F)(F)C(F)(F)C(F)(F)C(F)(F)C(F)(F)F [Perfluorotetradecanoic acid]; conditions: in DMSO
Method: as §1

[4] = compound: C=CC(=O)OCCC(F)(F)C(F)(F)C(F)(F)C(F)(F)F [2-(Perfluorobutyl)ethyl acrylate]; conditions: 2200 nM; in DMSO
Method: as §1

[5] = compound: FC(F)(I)C(F)(F)C(F)(F)C(F)(F)C(F)(F)C(F)(F)I [1,6-Diiodoperfluorohexane]; conditions: 2200 nM; in DMSO
Method: as §1

[6] = compound: O=S(=O)(O)C(F)(F)C(F)(F)C(F)(F)C(F)(F)C(F)(F)C(F)(F)F [Perfluorohexanesulfonic acid]; conditions: 2200 nM; in DMSO
Method: as §1

[7] = compound: FC(F)(F)C(F)(C(F)(F)F)C(F)(F)C(F)(F)CC1CO1 [3-(Perfluoro-3-methylbutyl)-1,2-propenoxide]; conditions: in DMSO
Method: as §1

Hexafluoroamylene glycol = compound: OCC(F)(F)C(F)(F)C(F)(F)CO [Hexafluoroamylene glycol]; conditions: 2200 nM; in DMSO
Method: as §1

[8] = compound: O=C(Cl)C(F)(F)C(F)(F)C(F)(F)C(=O)Cl [Hexafluoroglutaryl chloride]; conditions: 2200 nM; in DMSO
Method: as §1

[9] = compound: C=CC(=O)OCC(F)(F)C(F)(F)C(F)(F)COC(=O)C=C [1H,1H,5H,5H-Perfluoro-1,5-pentanediol diacrylate]; conditions: 2200 nM; in DMSO
Method: as §1

[10] = compound: C=CC(=O)OCCC(F)(F)C(F)(F)C(F)(F)C(F)(F)C(F)(F)C(F)(F)C(F)(F)C(F)(F)F [8:2 Fluorotelomer acrylate]; conditions: 2200 nM; in DMSO
Method: as §1

[11] = compound: OCCCC(F)(F)C(F)(F)C(F)(F)C(F)(F)C(F)(F)C(F)(F)C(F)(F)F [7:3 Fluorotelomer alcohol]; conditions: 2200 nM; in DMSO
Method: as §1

Perfluoro-1-iodohexane = compound: FC(F)(F)C(F)(F)C(F)(F)C(F)(F)C(F)(F)C(F)(F)I [Perfluoro-1-iodohexane]; conditions: in DMSO
Method: as §1

Test System | level (log10) ([1]; 2200 nM) | level (log10) ([1]; 6700 nM) | level (log10) ([1]; 20000 nM) | level (log10) ([1]; 60000 nM) | level (log10) [2] | level (log10) ([3]; 740 nM) | level (log10) ([3]; 2200 nM) | level (log10) [4] | level (log10) [5] | level (log10) [6] | level (log10) ([7]; 740 nM) | level (log10) ([7]; 2200 nM) | level (log10) (Hexafluoroamylene glycol) | level (log10) [8] | level (log10) [9] | level (log10) [10] | level (log10) [11] | level (log10) (Perfluoro-1-iodohexane; 2200 nM) | level (log10) (Perfluoro-1-iodohexane; 6700 nM) | level (log10) (Perfluoro-1-iodohexane; 20000 nM) | level (log10) (Perfluoro-1-iodohexane; 60000 nM)
BE3C:MMP-1 | -0.0035 ± 0.056 | -0.066 ± 0.0099 | -0.0425 ± 0.005 | 0.0305 ± 0.073 | -0.001 ± 0.0057 | 0.0255 ± 0.012 | 0.0385 ± 0.0035 | 0.013 ± 0.054 | 0.0195 ± 0.07 | 0.016 ± 0.016 | 0.0125 ± 0.016 | 0.0275 ± 0.019 | -0.003 ± 0.0085 | 0.0065 ± 0.018 | 0.009 ± 0.018 | 0.023 ± 0.058 | 0.003 ± 0.0057 | -0.0075 ± 0.037 | -0.003 ± 0.0085 | -0.0065 ± 0.011 | 0.043 ± 0.016
SAg:Proliferation | 0.046 ± 0.072 | 0.004 ± 0.0085 | -0.0715 ± 0.022 | -0.462 ± 0.032 | -0.0305 ± 0.087 | 0.01 ± 0.072 | -0.012 ± 0.02 | 0.0035 ± 0.12 | -0.005 ± 0.0099 | 0.0125 ± 0.012 | 0.0535 ± 0.059 | -0.001 ± 0.076 | -0.0395 ± 0.066 | 0.0315 ± 0.0064 | -0.234 ± 0.075 | -0.0185 ± 0.00071 | 0.041 ± 0.0057 | -0.0275 ± 0.064 | -0.031 ± 0.044 | -0.055 ± 0.02 | -0.0395 ± 0.04
LPS:IL-1alpha | -0.0425 ± 0.0021 | -0.0355 ± 0.015 | -0.0495 ± 0.023 | -0.095 ± 0.02 | 0.0235 ± 0.022 | 0.018 ± 0.047 | -0.017 ± 0.048 | 0.002 | 0.037 ± 0.0085 | 0.0115 ± 0.043 | 0.0085 ± 0.0064 | -0.0135 ± 0.025 | 0.0365 ± 0.012 | -0.022 ± 0.047 | -0.007 ± 0.023 | 0.0155 ± 0.019 | -0.015 ± 0.033 | -0.0265 ± 0.028 | -0.048 ± 0.035 | -0.042 ± 0.021 | -0.004 ± 0.0014
KF3CT:uPA | 0.0135 ± 0.023 | 0.027 ± 0.02 | 0.0275 ± 0.028 | 0.0325 ± 0.0021 | 0 ± 0.0071 | -0.002 ± 0.0042 | 0.019 ± 0.02 | -0.0205 ± 0.022 | 0.017 ± 0.011 | 0.006 ± 0.0014 | -0.014 ± 0.031 | 0.006 ± 0.028 | 0.0085 ± 0.0078 | 0.0235 ± 0.0035 | 0.006 ± 0.013 | -0.0005 ± 0.0035 | -0.0295 ± 0.042 | -0.007 ± 0.027 | 0.013 ± 0.0042 | 0.006 ± 0.023 | 0.007 ± 0.017
4H:CCL26/Eotaxin-3 | -0.0075 ± 0.09 | -0.02 ± 0.044 | -0.042 ± 0.0042 | -0.121 ± 0.0064 | -0.0035 ± 0.049 | -0.0025 ± 0.016 | -0.053 ± 0.05 | -0.0045 ± 0.043 | 0.0105 ± 0.016 | -0.0245 ± 0.00071 | 0.019 ± 0.018 | 0.006 | 0.058 ± 0.033 | -0.009 ± 0.045 | -0.0605 ± 0.025 | 0.0565 ± 0.03 | 0.0105 ± 0.00071 | 0.0005 ± 0.011 | 0.014 ± 0.013 | 0.016 ± 0.017 | 0.016 ± 0.021
BF4T:uPA | -0.0145 ± 0.00071 | -0.0175 ± 0.0078 | -0.0195 ± 0.012 | -0.0135 ± 0.013 | 0.001 ± 0.017 | 0.0195 ± 0.028 | 0.0055 ± 0.00071 | 0.0135 ± 0.076 | 0.016 ± 0.014 | 0.007 ± 0.02 | -0.0065 ± 0.0035 | -0.0045 ± 0.0092 | 0.009 ± 0.018 | -0.0105 ± 0.012 | 0.0015 ± 0.022 | -0.0195 ± 0.052 | -0.0205 ± 0.012 | -0.014 | -0.0075 ± 0.013 | -0.016 ± 0.024 | -0.0165 ± 0.0035
KF3CT:CXCL8/IL-8 | -0.004 ± 0.017 | -0.004 ± 0.0028 | 0.0025 ± 0.0092 | 0.0245 ± 0.016 | 0.001 ± 0.0028 | 0.006 ± 0.03 | 0.0045 ± 0.019 | -0.013 ± 0.0042 | 0.0065 ± 0.028 | 0.0145 ± 0.0078 | 0.005 ± 0.018 | -0.0075 ± 0.00071 | 0.017 ± 0.021 | -0.022 ± 0.025 | 0.0045 ± 0.036 | -0.0035 ± 0.00071 | -0.0055 ± 0.00071 | -0.018 ± 0.021 | -0.0125 ± 0.016 | 0.003 ± 0.0014 | 0 ± 0.011
3C:CCL2/MCP-1 | -0.0025 ± 0.0064 | 0.001 ± 0.011 | -0.0065 ± 0.0064 | 0.0015 ± 0.037 | 0.0065 ± 0.054 | 0.0005 ± 0.013 | -0.019 ± 0.011 | -0.002 ± 0.021 | 0.02 ± 0.016 | -0.021 ± 0.035 | 0.0225 ± 0.033 | -0.0025 ± 0.00071 | 0.018 ± 0.0042 | 0.045 ± 0.02 | -0.0095 ± 0.043 | -0.002 ± 0.016 | 0.0055 ± 0.022 | -0.0055 ± 0.015 | -0.0105 ± 0.0021 | -0.006 ± 0.02 | 0.003 ± 0.047
BT:sIL-6 | 0.064 ± 0.041 | 0.035 ± 0.037 | -0.0575 ± 0.026 | -0.182 ± 0.018 | 0.001 ± 0.025 | -0.016 ± 0.018 | 0.257 ± 0.44 | -0.042 ± 0.013 | -0.0075 ± 0.083 | 0.0285 ± 0.029 | -0.0025 ± 0.016 | 0.0185 ± 0.013 | -0.004 ± 0.0014 | 0.008 ± 0.0099 | -0.223 ± 0.088 | 0.0775 ± 0.0035 | 0.012 ± 0.0071 | 0.0455 ± 0.012 | 0.0615 ± 0.0035 | 0.028 ± 0.057 | 0.039 ± 0.045
SAg:CD62E/E-Selectin | -0.0665 ± 0.019 | -0.096 ± 0.0071 | -0.192 ± 0.032 | -0.459 ± 0.11 | -0.001 ± 0.0099 | 0.0145 ± 0.0035 | 0.0025 ± 0.0078 | 0.0045 ± 0.019 | 0.0015 ± 0.013 | -0.015 ± 0.0042 | -0.011 ± 0.0057 | -0.0025 ± 0.013 | -0.003 ± 0.027 | -0.004 ± 0.038 | -0.0725 ± 0.036 | 0.0055 ± 0.016 | 0.0235 ± 0.03 | 0.0075 ± 0.026 | -0.009 ± 0.0014 | 0.0055 ± 0.019 | 0.0095 ± 0.044
3C:Proliferation | -0.018 ± 0.05 | -0.0425 ± 0.0021 | -0.089 ± 0.02 | -0.189 ± 0.1 | -0.0005 ± 0.044 | -0.1 ± 0.079 | -0.222 ± 0.16 | -0.0245 ± 0.047 | -0.011 ± 0.0099 | 0.02 ± 0.055 | -0.039 ± 0.052 | 0.0095 ± 0.032 | -0.0375 ± 0.05 | -0.0045 ± 0.0035 | -0.155 ± 0.05 | -0.047 ± 0.011 | -0.0075 ± 0.026 | -0.036 ± 0.059 | -0.0215 ± 0.0064 | -0.0205 ± 0.013 | -0.041 ± 0.041
CASM3C:CD87/uPAR | -0.034 ± 0.0028 | -0.0235 ± 0.023 | -0.029 ± 0.031 | -0.031 ± 0.023 | -0.006 ± 0.013 | -0.008 ± 0.055 | 0.008 ± 0.035 | -0.018 ± 0.033 | -0.011 | 0.002 ± 0.024 | -0.0045 ± 0.0035 | -0.0205 ± 0.013 | 0.011 ± 0.0071 | -0.0345 ± 0.042 | -0.0015 ± 0.0078 | -0.0595 ± 0.05 | -0.0205 ± 0.043 | 0.008 ± 0.0057 | 0 ± 0.0085 | -0.0105 ± 0.03 | 0.003 ± 0.021

As a short view, part of the list above:
Test System | level (log10) ([1]; 2200 nM) | level (log10) ([1]; 6700 nM) | level (log10) ([1]; 20000 nM) | level (log10) ([1]; 60000 nM) | level (log10) [2] | level (log10) ([3]; 740 nM) | level (log10) ([3]; 2200 nM) | level (log10) [4] | level (log10) [5] | level (log10) [6] | level (log10) ([7]; 740 nM) | level (log10) ([7]; 2200 nM) | level (log10) (Hexafluoroamylene glycol) | level (log10) [8] | level (log10) [9] | level (log10) [10] | level (log10) [11] | level (log10) (Perfluoro-1-iodohexane; 2200 nM) | level (log10) (Perfluoro-1-iodohexane; 6700 nM) | level (log10) (Perfluoro-1-iodohexane; 20000 nM) | level (log10) (Perfluoro-1-iodohexane; 60000 nM)
BE3C:MMP-1 | -0.0035 ± 0.056 | -0.066 ± 0.0099 | -0.0425 ± 0.005 | 0.0305 ± 0.073 | -0.001 ± 0.0057 | 0.0255 ± 0.012 | 0.0385 ± 0.0035 | 0.013 ± 0.054 | 0.0195 ± 0.07 | 0.016 ± 0.016 | 0.0125 ± 0.016 | 0.0275 ± 0.019 | -0.003 ± 0.0085 | 0.0065 ± 0.018 | 0.009 ± 0.018 | 0.023 ± 0.058 | 0.003 ± 0.0057 | -0.0075 ± 0.037 | -0.003 ± 0.0085 | -0.0065 ± 0.011 | 0.043 ± 0.016
SAg:Proliferation | 0.046 ± 0.072 | 0.004 ± 0.0085 | -0.0715 ± 0.022 | -0.462 ± 0.032 | -0.0305 ± 0.087 | 0.01 ± 0.072 | -0.012 ± 0.02 | 0.0035 ± 0.12 | -0.005 ± 0.0099 | 0.0125 ± 0.012 | 0.0535 ± 0.059 | -0.001 ± 0.076 | -0.0395 ± 0.066 | 0.0315 ± 0.0064 | -0.234 ± 0.075 | -0.0185 ± 0.00071 | 0.041 ± 0.0057 | -0.0275 ± 0.064 | -0.031 ± 0.044 | -0.055 ± 0.02 | -0.0395 ± 0.04
